PubChem BioAssay AID504764 – Drosophila RNAi Screening Center – 2011

- Test: 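Knock-downs that raise or lower a Notch target reporter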 (primary screen)
- Cells: Drosophila Kc167 cells
- Knock-down reagent: long dsRNA against Drosophila genes
- Timing: about 5 days (4 days dsRNA, then 24 h after transfection)
- Treatment: transfection of constitutively active membrane-tethered Notch lacking the extracellular domain, read 24 h later
- Read-out: 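Light from a Notch-responsive E(spl)m3 luciferase reporter under active Notch, with control-promoter and no-Notch reporter wells to normalise; raw counts from paired wells a and b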
- Scale: induced reporter light, run 1, well a and induced reporter light, run 1, well b: higher = more light from the Notch target reporter with active Notch; control promoter light, run 1, well a and control promoter light, run 1, well b: higher = more light from the viral control promoter (cell number, transfection, viability); uninduced reporter light, run 1, well a: higher = more light from the Notch target reporter without active Notch
- Hit rule: 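Hit if the duplicate-averaged log2 ratio of induced to control-promoter light gives a plate-wise z beyond ±2, or induced to uninduced beyond ±1.8; weak-control or discordant-duplicate wells dropped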
- Calls: active = modifier hit (raised or lowered Notch signal); inactive = not a hit
The screen tested about 22,000 reagents; below is an unselected part of those that have a named target and a result. In the full data, 403 (1.9%) are marked active. 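Unnormalised raw counts per well; ratio z-scores behind the hit calls and whether each hit raises or lowers signal are not deposited.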 Reagents against one gene are numbered here. Not stated in the record: the amount of reagent.

target	reagent	induced reporter light, run 1, well a	induced reporter light, run 1, well b	control promoter light, run 1, well a	control promoter light, run 1, well b	uninduced reporter light, run 1, well a	outcome
Burs (Bursicon)	1	1.30e5	1.31e5	1.63e5	1.67e5	8130	inactive
CG3860	1	1.36e5	1.42e5	1.57e5	1.57e5	13030	inactive
CG8777	1	1.51e5	1.16e5	1.42e5	1.41e5	13245	inactive
Dolk (Dolichol kinase)	1	45640	32650	40960	34510	4065	inactive
CG15083	1	1.30e5	89030	96190	1.14e5	8975	inactive
CG34203	1	61650	61750	66945	87425	8485	inactive
Sodh1 (Sorbitol dehydrogenase 1)	1	1.56e5	1.24e5	1.03e5	96865	11860	inactive
CG34355	1	1.93e5	1.88e5	1.34e5	1.75e5	14700	inactive
CG34355	2	1.80e5	1.56e5	1.93e5	1.64e5	12535	inactive
CG34355	3	1.46e5	1.71e5	1.88e5	1.58e5	11820	inactive
Cpr50Cb (Cuticular protein 50Cb)	1	1.08e5	1.02e5	1.30e5	1.35e5	11430	inactive
Cpr65Av (Cuticular protein 65Av)	1	2.03e5	2.09e5	3.34e5	2.99e5	9760	inactive
CG33769	1	1.44e5	1.70e5	1.76e5	1.41e5	12980	inactive
CG4781	1	1.79e5	1.34e5	1.43e5	1.79e5	12160	inactive
E(spl)malpha-BFM (Enhancer of split malpha, Bearded family member)	1	71405	92105	1.16e5	1.20e5	10100	inactive

A run of entries taken from the entries so far:
target	reagent	induced reporter light, run 1, well a	induced reporter light, run 1, well b	control promoter light, run 1, well a	control promoter light, run 1, well b	uninduced reporter light, run 1, well a	outcome
Burs (Bursicon)	1	1.30e5	1.31e5	1.63e5	1.67e5	8130	inactive
CG3860	1	1.36e5	1.42e5	1.57e5	1.57e5	13030	inactive
CG8777	1	1.51e5	1.16e5	1.42e5	1.41e5	13245	inactive
Dolk (Dolichol kinase)	1	45640	32650	40960	34510	4065	inactive
CG15083	1	1.30e5	89030	96190	1.14e5	8975	inactive

The listing continues:
target	reagent	induced reporter light, run 1, well a	induced reporter light, run 1, well b	control promoter light, run 1, well a	control promoter light, run 1, well b	uninduced reporter light, run 1, well a	outcome
LamC (Lamin C)	1	1.41e5	1.24e5	1.34e5	1.32e5	9710	inactive
alphaSnap (alpha Soluble NSF attachment protein)	1	29060	24030	20545	23205	2455	inactive
CG14662	1	1.17e5	1.20e5	1.35e5	1.47e5	9145	inactive
CheA29a (Chemosensory protein A 29a)	1						inactive
Fntb (Farnesyl transferase beta subunit)	1	1.63e5	1.59e5	2.37e5	2.46e5	15865	inactive
CG7352	1	90835	1.20e5	1.11e5	92155	8882	inactive
slim (scruin like at the midline)	1	1.04e5	1.24e5	2.00e5	2.04e5	7465	inactive
Alg13 (Alg13 UDP-N-acetylglucosaminyltransferase subunit)	1	1.13e5	1.37e5	1.86e5	1.61e5	10935	inactive
Adgf-A2 (Adenosine deaminase-related growth factor A2)	1	1.73e5	1.65e5	2.13e5	2.16e5	17970	inactive
eIF3d2 (eukaryotic translation initiation factor 3 subunit d2)	1	1.46e5	1.39e5	1.44e5	1.36e5	11515	inactive
mRpL20 (mitochondrial ribosomal protein L20)	1	1.40e5	1.20e5	1.89e5	1.72e5	6595	inactive
CG31810	1	60130	53710	66495	54815	5025	inactive
hpo (hippo)	1	1.03e5	1.01e5	2.02e5	2.28e5	8330	inactive
Fdx2 (Ferredoxin 2)	1	52935	1.77e5	2.43e5	2.11e5	8765	inactive
CG17807	1	1.74e5	1.73e5	1.55e5	1.32e5	11755	inactive
qin	1	2.62e5	1.96e5	2.04e5	1.68e5	14005	inactive
CG13705	1	1.23e5	1.39e5	1.38e5	1.08e5	10020	inactive
HP4 (Heterochromatin protein 4)	1	1.21e5	1.29e5	79835	32540	10000	inactive
TwdlF (TweedleF)	1	1.11e5	1.11e5	80115	61850	10430	inactive
